# Measurements as given in the supplement of paper PMC8728848.
# The list shows a part of the results.
# B1: TbCVNHOa (Tuber borchii), Q5MK11 (protein)
# chain: MSYADSSRNAVLTNGGRTLRAECRNADGNWVTSELDLDTCIGNPNGFLGWGMQNFSHSSEDIKLEEGGRKLTCRPKTVDGGFRERQGIDLNRIQNVNGRLVFQ
# Legend:
# Assay in all cases: glycan array binding signal (z-score within array); higher = stronger binding
# Settings in all cases: glycan notation: IUPAC condensed, linker removed
# [1] = target: Man(a1-3)[Man(a1-6)]Man(a1-6)[Man(a1-2)Man(a1-3)]Man(b1-4)GlcNAc(b1-4)GlcNAc
# Summary of the method: (§1)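 The Consortium for Functional Glycomics database supplied 3228 glycan arrays, of which those lacking an available protein sequence were dropped. The binding signal, a within-array Z-score, was averaged across arrays of the same protein sequence and across linkers. Negative scores can be read as non-binding.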
# [2] = target: Man(a1-3)[Man(a1-6)]Man(a1-6)[Man(a1-3)]Man
# Summary of the method: as §1
# [3] = target: Man(a1-3)[Man(a1-6)]Man(a1-6)[Man(a1-3)]Man(b1-4)GlcNAc(b1-4)GlcNAc
# Summary of the method: as §1
# [4] = target: Man(a1-3)[Man(a1-6)]Man(b1-4)GlcNAc(b1-4)GlcNAc
# Summary of the method: as §1
# [5] = target: Man(a1-6)Man
# Summary of the method: as §1
# [6] = target: Man(b1-4)GlcNAc
# Summary of the method: as §1
# [7] = target: Neu5Ac(a2-3)Gal
# Summary of the method: as §1
# [8] = target: Neu5Ac(a2-3)Gal(b1-3)GalNAc
# Summary of the method: as §1
# [9] = target: Neu5Ac(a2-3)Gal(b1-3)GalNAc(b1-3)Gal(a1-4)Gal(b1-4)Glc
# Summary of the method: as §1
# [10] = target: Neu5Ac(a2-3)Gal(b1-3)GalNAc(b1-3)Gal(b1-4)GlcNAc
# Summary of the method: as §1
# [11] = target: Neu5Ac(a2-3)Gal(b1-3)GalNAc(b1-4)[Neu5Ac(a2-3)]Gal(b1-4)Glc
# Summary of the method: as §1
# [12] = target: Neu5Ac(a2-3)Gal(b1-3)GalNAc6S
# Summary of the method: as §1
# [13] = target: Neu5Ac(a2-3)Gal(b1-3)GlcNAc
# Summary of the method: as §1
# [14] = target: Neu5Ac(a2-3)Gal(b1-3)GlcNAc(b1-3)Gal(b1-3)GlcNAc
# Summary of the method: as §1
# [15] = target: Neu5Ac(a2-3)Gal(b1-3)GlcNAc6S
# Summary of the method: as §1
# [16] = target: Neu5Ac(a2-3)Gal(b1-3)[Fuc(a1-4)]GlcNAc
# Summary of the method: as §1
# [17] = target: Neu5Ac(a2-3)Gal(b1-3)[Fuc(a1-4)]GlcNAc(b1-3)Gal(b1-4)[Fuc(a1-3)]GlcNAc
# Summary of the method: as §1
# [18] = target: Neu5Ac(a2-3)Gal(b1-3)[Neu5Ac(a2-3)Gal(b1-4)]GlcNAc
# Summary of the method: as §1
# [19] = target: Neu5Ac(a2-3)Gal(b1-3)[Neu5Ac(a2-6)]GalNAc
# Summary of the method: as §1
# [20] = target: Neu5Ac(a2-3)Gal(b1-4)Glc
# Summary of the method: as §1
# [21] = target: Neu5Ac(a2-3)Gal(b1-4)GlcNAc
# Summary of the method: as §1
# [22] = target: Neu5Ac(a2-3)Gal(b1-4)GlcNAc(b1-2)Man(a1-3)[GlcNAc(b1-2)Man(b1-4)GlcNAc(b1-2)Man(a1-6)]Man(b1-4)GlcNAc(b1-4)GlcNAc
# Summary of the method: as §1
# [23] = target: Neu5Ac(a2-3)Gal(b1-4)GlcNAc(b1-2)Man(a1-3)[Neu5Ac(a2-6)Gal(b1-4)GlcNAc(b1-2)Man(a1-6)]Man(b1-4)GlcNAc(b1-4)GlcNAc
# Summary of the method: as §1
# [24] = target: Neu5Ac(a2-3)Gal(b1-4)GlcNAc(b1-3)Gal(b1-3)GlcNAc
# Summary of the method: as §1
# [25] = target: Neu5Ac(a2-3)Gal(b1-4)GlcNAc(b1-3)Gal(b1-4)GlcNAc
# Summary of the method: as §1
# [26] = target: Neu5Ac(a2-3)Gal(b1-4)GlcNAc(b1-3)Gal(b1-4)GlcNAc(b1-3)Gal(b1-4)GlcNAc
# Summary of the method: as §1
# [27] = target: Neu5Ac(a2-3)Gal(b1-4)GlcNAc(b1-3)Gal(b1-4)[Fuc(a1-3)]GlcNAc
# Summary of the method: as §1
# [28] = target: Neu5Ac(a2-3)Gal(b1-4)GlcNAc(b1-6)[Gal(b1-3)]GalNAc
# Summary of the method: as §1
# [29] = target: Neu5Ac(a2-3)Gal(b1-4)GlcNAc(b1-6)[Neu5Ac(a2-3)Gal(b1-3)]GalNAc
# Summary of the method: as §1
# [30] = target: Neu5Ac(a2-3)Gal(b1-4)GlcNAc6S
# Summary of the method: as §1
# [31] = target: Neu5Ac(a2-3)Gal(b1-4)[Fuc(a1-3)]GlcNAc
# Summary of the method: as §1
# [32] = target: Neu5Ac(a2-3)Gal(b1-4)[Fuc(a1-3)]GlcNAc(b1-3)Gal
# Summary of the method: as §1
# [33] = target: Neu5Ac(a2-3)Gal(b1-4)[Fuc(a1-3)]GlcNAc(b1-3)Gal(b1-4)GlcNAc
# Summary of the method: as §1
# [34] = target: Neu5Ac(a2-3)Gal(b1-4)[Fuc(a1-3)]GlcNAc(b1-3)Gal(b1-4)[Fuc(a1-3)]GlcNAc(b1-3)Gal(b1-4)[Fuc(a1-3)]GlcNAc
# Summary of the method: as §1
# [35] = target: Neu5Ac(a2-3)Gal(b1-4)[Fuc(a1-3)]GlcNAc(b1-6)[Gal(b1-3)]GalNAc
# Summary of the method: as §1
# [36] = target: Neu5Ac(a2-3)Gal(b1-4)[Fuc(a1-3)]GlcNAc6S
# Summary of the method: as §1
# [37] = target: Neu5Ac(a2-3)Gal6S(b1-4)GlcNAc
# Summary of the method: as §1
# [38] = target: Neu5Ac(a2-3)Gal6S(b1-4)[Fuc(a1-3)]GlcNAc
# Summary of the method: as §1
# [39] = target: Neu5Ac(a2-3)GalNAc
# Summary of the method: as §1
# [40] = target: Neu5Ac(a2-3)GalNAc(b1-4)GlcNAc
# Summary of the method: as §1
# [41] = target: Neu5Ac(a2-3)[GalNAc(b1-4)]Gal(b1-4)Glc
# Summary of the method: as §1
# [42] = target: Neu5Ac(a2-3)[GalNAc(b1-4)]Gal(b1-4)GlcNAc
# Summary of the method: as §1
# [43] = target: Neu5Ac(a2-3)[Neu5Ac(a2-6)]GalNAc
# Summary of the method: as §1
# [44] = target: Neu5Ac(a2-6)Gal
# Summary of the method: as §1
# [45] = target: Neu5Ac(a2-6)Gal(b1-4)Glc
# Summary of the method: as §1
binder,measurement,setting,value
B1,glycan array binding signal (z-score),[1],-0.025
same,glycan array binding signal (z-score),[2],-0.458
same,glycan array binding signal (z-score),[3],-0.22
same,glycan array binding signal (z-score),[4],-0.062
same,glycan array binding signal (z-score),[5],-0.516
same,glycan array binding signal (z-score),[6],-0.533
same,glycan array binding signal (z-score),[7],-0.083
same,glycan array binding signal (z-score),[8],-0.506
same,glycan array binding signal (z-score),[9],-0.488
same,glycan array binding signal (z-score),[10],-0.517
same,glycan array binding signal (z-score),[11],-0.471
same,glycan array binding signal (z-score),[12],-0.479
same,glycan array binding signal (z-score),[13],-0.483
same,glycan array binding signal (z-score),[14],-0.278
same,glycan array binding signal (z-score),[15],-0.765
same,glycan array binding signal (z-score),[16],-0.529
same,glycan array binding signal (z-score),[17],-0.397
same,glycan array binding signal (z-score),[18],-0.412
same,glycan array binding signal (z-score),[19],-0.16
same,glycan array binding signal (z-score),[20],0.776
same,glycan array binding signal (z-score),[21],-0.264
same,glycan array binding signal (z-score),[22],-0.165
same,glycan array binding signal (z-score),[23],0.05
same,glycan array binding signal (z-score),[24],-0.358
same,glycan array binding signal (z-score),[25],-0.27
same,glycan array binding signal (z-score),[26],-0.329
same,glycan array binding signal (z-score),[27],-0.411
same,glycan array binding signal (z-score),[28],-0.282
same,glycan array binding signal (z-score),[29],-0.718
same,glycan array binding signal (z-score),[30],-0.522
same,glycan array binding signal (z-score),[31],-0.351
same,glycan array binding signal (z-score),[32],-0.429
same,glycan array binding signal (z-score),[33],0.562
same,glycan array binding signal (z-score),[34],-0.439
same,glycan array binding signal (z-score),[35],0.487
same,glycan array binding signal (z-score),[36],-0.161
same,glycan array binding signal (z-score),[37],-0.344
same,glycan array binding signal (z-score),[38],-0.025
same,glycan array binding signal (z-score),[39],-0.127
same,glycan array binding signal (z-score),[40],-0.428
same,glycan array binding signal (z-score),[41],-0.137
same,glycan array binding signal (z-score),[42],-0.358
same,glycan array binding signal (z-score),[43],-0.409
same,glycan array binding signal (z-score),[44],-0.145
same,glycan array binding signal (z-score),[45],-0.206

# In another format: results already given
binder	measurement	setting	value
B1	glycan array binding signal (z-score)	[2]	-0.458
same	glycan array binding signal (z-score)	[12]	-0.479
same	glycan array binding signal (z-score)	[28]	-0.282
same	glycan array binding signal (z-score)	[43]	-0.409
